Test [1] has as its target Flag-tagged MET protein (Flag-MET) (UniProt P08581). In words: affinity purification with mass spectrometry; extracts of 293T cells expressing Flag-MET, immunoprecipitated, LC-MS/MS; candidates bound the Flag-MET-immobilized beads but not the isotype control and overlapped with the endogenous MET data set.
Test [2] has as its target hepatocyte growth factor receptor (MET), endogenous (human (endogenous in HepG2)) (UniProt P08581). In words: affinity purification with mass spectrometry; extracts of HepG2 cells, endogenous MET immunoprecipitated, LC-MS/MS; candidates bound the MET beads but not the isotype control and overlapped with the Flag-MET data set.

Amino acid sequences for entries named in this document (tags omitted).
UniProt Q00610: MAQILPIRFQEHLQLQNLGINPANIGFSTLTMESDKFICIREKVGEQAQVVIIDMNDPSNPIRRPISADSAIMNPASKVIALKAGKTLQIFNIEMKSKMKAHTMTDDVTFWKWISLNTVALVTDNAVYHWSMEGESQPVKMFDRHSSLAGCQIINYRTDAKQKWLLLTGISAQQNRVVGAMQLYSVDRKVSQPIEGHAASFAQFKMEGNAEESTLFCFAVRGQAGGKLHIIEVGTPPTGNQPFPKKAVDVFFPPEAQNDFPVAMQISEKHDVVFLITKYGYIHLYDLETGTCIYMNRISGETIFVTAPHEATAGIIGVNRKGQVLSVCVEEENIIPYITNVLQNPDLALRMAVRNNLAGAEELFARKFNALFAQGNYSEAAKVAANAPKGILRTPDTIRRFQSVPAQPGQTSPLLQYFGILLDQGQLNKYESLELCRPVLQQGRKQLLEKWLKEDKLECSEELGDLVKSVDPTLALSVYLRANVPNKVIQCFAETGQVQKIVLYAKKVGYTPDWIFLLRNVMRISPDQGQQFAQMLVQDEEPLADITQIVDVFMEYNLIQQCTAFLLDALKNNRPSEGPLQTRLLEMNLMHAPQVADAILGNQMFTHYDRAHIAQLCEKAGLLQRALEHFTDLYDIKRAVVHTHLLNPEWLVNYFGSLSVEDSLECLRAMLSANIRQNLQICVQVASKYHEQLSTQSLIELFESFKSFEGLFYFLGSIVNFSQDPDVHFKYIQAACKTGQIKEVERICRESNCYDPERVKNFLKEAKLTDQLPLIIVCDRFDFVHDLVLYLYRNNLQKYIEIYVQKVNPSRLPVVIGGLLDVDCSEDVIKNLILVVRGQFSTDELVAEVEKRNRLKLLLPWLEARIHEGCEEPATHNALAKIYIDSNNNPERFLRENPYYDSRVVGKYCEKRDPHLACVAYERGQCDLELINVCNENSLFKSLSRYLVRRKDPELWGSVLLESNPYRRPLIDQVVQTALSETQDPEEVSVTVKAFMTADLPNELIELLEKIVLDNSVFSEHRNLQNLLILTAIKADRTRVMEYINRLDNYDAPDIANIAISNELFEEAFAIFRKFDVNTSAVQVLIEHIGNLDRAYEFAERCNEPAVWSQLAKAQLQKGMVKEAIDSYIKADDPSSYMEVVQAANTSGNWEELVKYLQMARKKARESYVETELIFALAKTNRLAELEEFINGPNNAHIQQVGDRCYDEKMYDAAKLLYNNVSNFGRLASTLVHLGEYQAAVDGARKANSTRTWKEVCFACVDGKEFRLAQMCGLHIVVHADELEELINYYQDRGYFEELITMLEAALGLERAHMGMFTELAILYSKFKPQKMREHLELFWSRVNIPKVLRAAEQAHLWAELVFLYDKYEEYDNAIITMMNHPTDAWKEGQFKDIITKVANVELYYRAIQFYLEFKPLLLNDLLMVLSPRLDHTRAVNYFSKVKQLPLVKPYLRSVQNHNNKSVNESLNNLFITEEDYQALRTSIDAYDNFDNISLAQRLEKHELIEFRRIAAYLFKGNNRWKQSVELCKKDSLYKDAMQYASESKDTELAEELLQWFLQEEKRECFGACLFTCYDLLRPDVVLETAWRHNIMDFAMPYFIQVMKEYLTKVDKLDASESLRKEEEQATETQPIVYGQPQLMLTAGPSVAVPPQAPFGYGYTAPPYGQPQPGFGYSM
UniProt P09874: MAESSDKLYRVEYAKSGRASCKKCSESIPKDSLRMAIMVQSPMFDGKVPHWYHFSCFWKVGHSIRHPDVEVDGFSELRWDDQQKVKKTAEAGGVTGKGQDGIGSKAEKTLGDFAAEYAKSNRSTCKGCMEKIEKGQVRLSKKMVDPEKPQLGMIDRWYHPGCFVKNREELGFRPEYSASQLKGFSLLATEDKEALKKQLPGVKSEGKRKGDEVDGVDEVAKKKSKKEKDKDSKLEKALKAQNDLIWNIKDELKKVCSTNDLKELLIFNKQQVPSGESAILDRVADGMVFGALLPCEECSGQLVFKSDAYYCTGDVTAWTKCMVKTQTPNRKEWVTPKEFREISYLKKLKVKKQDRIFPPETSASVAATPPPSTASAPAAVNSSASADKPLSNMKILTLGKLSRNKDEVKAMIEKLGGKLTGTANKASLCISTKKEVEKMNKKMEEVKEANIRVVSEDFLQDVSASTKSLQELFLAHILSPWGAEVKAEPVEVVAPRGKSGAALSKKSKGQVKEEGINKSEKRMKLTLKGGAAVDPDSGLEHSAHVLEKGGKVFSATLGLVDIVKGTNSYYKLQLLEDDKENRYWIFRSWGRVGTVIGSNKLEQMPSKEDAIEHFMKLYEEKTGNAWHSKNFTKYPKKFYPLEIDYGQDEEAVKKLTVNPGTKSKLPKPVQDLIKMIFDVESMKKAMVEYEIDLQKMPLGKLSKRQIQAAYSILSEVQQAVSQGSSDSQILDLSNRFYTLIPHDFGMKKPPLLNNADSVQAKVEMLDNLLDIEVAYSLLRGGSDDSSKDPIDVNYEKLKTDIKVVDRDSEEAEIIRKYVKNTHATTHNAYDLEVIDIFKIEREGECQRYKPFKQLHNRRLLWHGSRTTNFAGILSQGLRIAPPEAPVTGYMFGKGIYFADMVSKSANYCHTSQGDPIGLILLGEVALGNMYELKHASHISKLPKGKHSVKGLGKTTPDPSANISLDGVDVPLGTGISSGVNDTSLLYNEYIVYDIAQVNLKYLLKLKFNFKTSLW

No constants are given. Whether binding was seen depends on the method and setting. Binding seen in cells or lysates may run through a third protein. Here binding means that the protein was enriched with, or labelled near, the bait; the list need not be complete.

As for “clathrin heavy chain (CLTC) (from UniProt Q00610 1-1675)”, the binding entry in test [1] and in test [2] was “binds” in each case.
For the substance “poly (ADP-ribose) polymerase 1 (PARP1) (from UniProt P09874 1-1014)”, the binding entry in test [1] and in test [2] was “binds” throughout.
